From US20070275063A1, “SUSTAINED RELEASE PHARMACEUTICAL COMPOSITIONS AND METHODS OF TREATMENT USING THE SAME” (SmithKline Beecham Corporation, priority 1998, published 2007)

Tested on: fasting plasma glucose (FPG) concentrations in diabetic patients
Experiment: PK/PD model (modified indirect response model IV) of the effect of Compound (I) on fasting plasma glucose in Type 2 diabetes patients
Assay type: in vivo, human
Details: estimated pharmacodynamic parameter
Description: The method by which the Threshold Plasma Concentration, such as the SC50 concentration, for a given compound can be determined is:
2) the model predicted concentrations for the compound are then fed back into the model and used to determine the change in fasting plasma glucose levels after various doses;
3) the relationship between predicted plasma concentrations of compound and fasting plasma glucose can suitably be determined using an indirect pharmacological response model (model IV), for example that described in (Dayneka N L, Garg V and Jusko W J, Comparison of Four Basic Models of Indirect Pharmacodynamic Responses. J of Pharmacokinetics and Biopharmaceutics. Vol 21, No 4. 1993). This model yields estimates of glucose input rate (Kin) and output rate (Kout), maximal stimulation of glucose output (Smax). Hill coefficient (gamma) and the Threshold Plasma Concentration, such as the SC50 concentration (i.e the concentration associated with a half maximal response) to be determined for that compound. This method forms a further part of the present invention.
For Compound (I), it was necessary to account for a time delay between the time of actual initiation of dosing (week 0) and the observed change in fasting plasma glucose. This delay factor was estimated through the modelling for each dose level. […] The delay factor was incorporated into the model for deriving fasting plasma glucose by assuming that the first dose of drug occurred only after the time dictated by the delay factor. It is considered that for this model a delay factor would be required for other thiazolidinedione insulin sensitisers and that this factor will be substantially similar to that found for Compound (I). Delay factors for other compounds may also be required to be determined using similar methodology to that disclosed herein.
A modified indirect response model IV (Dayneka et al. 1993) was developed utilizing the pharmacokinetics of Compound (I) as the driving force for the change in fasting plasma glucose after various doses of Compound (I). […]

CN(CCOc1ccc(CC2SC(=O)NC2=O)cc1)c1ccccn1 (stereo not drawn) [Compound (I), 5-[4-[2-(N-methyl-N-(2-pyridyl)amino)ethoxy]benzyl]thiazolidine-2,4-dione]
γ (sigmoidicity parameter, Hill coefficient): 3.1 | kin (formation of plasma glucose) (mean FPG data, 26 weeks): 0.54 mg/dL of FPG per h | kout (utilization of plasma glucose) (mean FPG data, 26 weeks): 0.0023 h⁻¹
